Record: PubChem BioAssay AID1508587 (Peter MacCallum Cancer Centre, 2020)

Screen: 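Follow-up of vemurafenib sensitisers scored by lactate made per cell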 (follow-up of hits)
System: human WM266.4 melanoma cells with a BRAF V600 mutation
Reagents: single siRNA against human genes, 25 nM
Duration: 96 h
Treatment: vemurafenib 300 nM (about IC25), given 48 h after transfection for 48 h
Read-out: 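Per-cell lactate from absorbance divided by DAPI nucleus counts, compared with and without vemurafenib, relative to non-targeting siRNA, mean of 2 replicates; nuclear counts also give cell number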
Reading the numbers: lactate per cell, drug vs no drug: higher = less drug-induced drop in lactate per cell; lactate per cell with vemurafenib: higher = more lactate per cell under drug; lactate per cell without drug: higher = more lactate per cell without drug; cell growth with vemurafenib and cell growth without drug: higher = more cell growth over 48 h
Rule for the call: 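a duplex is active when its lactate-per-cell ratio with versus without drug falls under 0.55, i.e. 2 SD below non-targeting; a gene is confirmed if 2 or more of 4 duplexes pass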
This is an unselected part of about 1,600 deposited reagents. 623 of all reagents (39%) were called active. 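Calls are for each duplex; lactate ratios contain extreme outliers.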 Unmarked entries are inactive. Reagents against one gene are numbered here. Reagent sequences are not shown.

gene knocked down | siRNA no. | lactate per cell, drug vs no drug | lactate per cell with vemurafenib | lactate per cell without drug | cell growth with vemurafenib | cell growth without drug
ADGRG6 (adhesion G protein-coupled receptor G6) | 1 | 0.48 (active) | 0.8 | 1.06 | 0.51 | 0.49
ADGRG6 (adhesion G protein-coupled receptor G6) | 2 | 0.6 | 1.51 | 1.6 | 0.77 | 0.52
ADGRG6 (adhesion G protein-coupled receptor G6) | 3 | 0.64 | 1.42 | 1.39 | 0.3 | 0.38
ADGRG6 (adhesion G protein-coupled receptor G6) | 4 | 0.62 | 0.92 | 0.94 | 1.09 | 1.04
CCZ1 (CCZ1 vacuolar protein trafficking and biogenesis associated) | 1 | 0.62 | 1.77 | 1.93 | 0.35 | 0.17
CCZ1 (CCZ1 vacuolar protein trafficking and biogenesis associated) | 2 | 0.83 | 0.84 | 0.68 | 0.74 | 1.06
CCZ1 (CCZ1 vacuolar protein trafficking and biogenesis associated) | 3 | 0.42 (active) | 0.76 | 1.22 | 0.25 | 0.15
CCZ1 (CCZ1 vacuolar protein trafficking and biogenesis associated) | 4 | 0.7 | 1.07 | 1.04 | 1.13 | 0.99
PRG3 (proteoglycan 3, pro eosinophil major basic protein 2) | 1 | 0.57 | 0.9 | 1.05 | 0.75 | 0.79
PRG3 (proteoglycan 3, pro eosinophil major basic protein 2) | 2 | 0.34 (active) | 0.74 | 1.42 | 0 | 0.09
PRG3 (proteoglycan 3, pro eosinophil major basic protein 2) | 3 | 0.74 | 1.24 | 1.12 | 0.96 | 0.95
PRG3 (proteoglycan 3, pro eosinophil major basic protein 2) | 4 | 0.92 | 1.55 | 1.1 | 0.94 | 0.95
FAAH (fatty acid amide hydrolase) | 1 | 0.87 | 1.58 | 1.18 | 0.43 | 0.25
FAAH (fatty acid amide hydrolase) | 2 | 0.4 (active) | 0.45 | 0.74 | 0.57 | 0.81
FAAH (fatty acid amide hydrolase) | 3 | 0.77 | 2.72 | 2.31 | 0.11 | 0.21
FAAH (fatty acid amide hydrolase) | 4 | 0.76 | 2 | 1.71 | 0.49 | 0.47
ANKRD26 (ankyrin repeat domain 26) | 1 | 0.65 | 1.34 | 1.28 | 0.31 | 0.56
ANKRD26 (ankyrin repeat domain 26) | 2 | 0.38 (active) | 1.23 | 2.06 | 0.63 | 0.14
ANKRD26 (ankyrin repeat domain 26) | 3 | 0.58 | 0.5 | 0.52 | 0.46 | 0.87
ANKRD26 (ankyrin repeat domain 26) | 4 | 0.6 | 2.84 | 3 | 0.02 | -0.04
H4C3 (H4 clustered histone 3) | 1 | 0.57 | 1.12 | 1.37 | 0.17 | 0.33
H4C3 (H4 clustered histone 3) | 2 | 0.8 | 1.18 | 1 | 0.94 | 0.9
H4C3 (H4 clustered histone 3) | 3 | 0.02 (active) | 0.01 | 0.44 | 0.25 | 0.39
H4C3 (H4 clustered histone 3) | 4 | 0.44 (active) | 1.02 | 1.56 | 0.34 | 0.18
GPR101 (G protein-coupled receptor 101) | 1 | 0.3 (active) | 0.75 | 1.62 | 0.16 | 0.17
GPR101 (G protein-coupled receptor 101) | 2 | 0.69 | 0.99 | 0.9 | 0.23 | 0.27
GPR101 (G protein-coupled receptor 101) | 3 | 0.64 | 0.94 | 0.92 | 1.18 | 1.23
GPR101 (G protein-coupled receptor 101) | 4 | 1.12 | 2.51 | 1.43 | 0.09 | 0.26
AGFG1 (ArfGAP with FG repeats 1) | 1 | 0.98 | 1.29 | 0.9 | 0.3 | 0.81
AGFG1 (ArfGAP with FG repeats 1) | 2 | 0.39 (active) | 0.8 | 1.4 | -0.04 | 0.08
AGFG1 (ArfGAP with FG repeats 1) | 3 | 0.62 | 1.25 | 1.4 | 0.19 | 0.31
AGFG1 (ArfGAP with FG repeats 1) | 4 | 0.6 | 1.08 | 1.25 | 0.31 | 0.37
SLC6A13 | 1 | 0.36 (active) | 0.46 | 0.84 | 0.31 | 0.45
SLC6A13 | 2 | 0.84 | 2.44 | 1.87 | 0.13 | 0.19
SLC6A13 | 3 | 0.53 (active) | 0.82 | 1.01 | 0.76 | 0.66
SLC6A13 | 4 | 1.05 | 3 | 1.86 | 0.23 | 0.34
SLC39A8 | 1 | 0.44 (active) | 1.14 | 1.86 | 0.1 | 0.11
SLC39A8 | 2 | 0.66 | 1.08 | 1.19 | 0.86 | 1
SLC39A8 | 3 | 0.56 | 0.66 | 0.84 | 0.89 | 1.14
SLC39A8 | 4 | 0.76 | 2.25 | 2.16 | 0.14 | 0.16
ATL3 (atlastin GTPase 3) | 1 | 0.61 | 1.36 | 1.54 | 0.59 | 0.37
ATL3 (atlastin GTPase 3) | 2 | 0.62 | 2.05 | 2.25 | 0.12 | 0.04
ATL3 (atlastin GTPase 3) | 3 | 0.61 | 0.54 | 0.64 | 0.21 | 0.12
ATL3 (atlastin GTPase 3) | 4 | 0.72 | 1.46 | 1.4 | 0.18 | 0.37
KIF5A (kinesin family member 5A) | 1 | 0.52 (active) | 0.81 | 0.92 | 0.31 | 0.53
KIF5A (kinesin family member 5A) | 2 | 0.72 | 2.12 | 1.73 | 0.32 | 0.38
KIF5A (kinesin family member 5A) | 3 | 0.43 (active) | 1.36 | 1.85 | 0.16 | 0.14
KIF5A (kinesin family member 5A) | 4 | 0.5 (active) | 1.55 | 1.82 | 0.24 | 0.19
LEMD2 (LEM domain nuclear envelope protein 2) | 1 | 1.02 | 5.41 | 3.56 | 0.03 | 0.02
LEMD2 (LEM domain nuclear envelope protein 2) | 2 | 0.72 | 1.14 | 1.08 | 1.03 | 0.8
LEMD2 (LEM domain nuclear envelope protein 2) | 3 | 0.63 | 1.68 | 1.8 | 0.3 | 0.19
LEMD2 (LEM domain nuclear envelope protein 2) | 4 | 0.72 | 1.36 | 1.27 | 0.59 | 0.51
GLE1 (GLE1 RNA export mediator) | 1 | 0.63 | 0.86 | 0.98 | 0.73 | 1.11
GLE1 (GLE1 RNA export mediator) | 2 | 0.73 | 1.74 | 1.71 | 0.31 | 0.44
GLE1 (GLE1 RNA export mediator) | 3 | 1.12 | 1.6 | 1.06 | 0.56 | 0.86
GLE1 (GLE1 RNA export mediator) | 4 | 0.76 | 1.12 | 1.06 | 1.64 | 1.22
PRELP (proline and arginine rich end leucine rich repeat protein) | 1 | 0.57 | 1.08 | 1.17 | 0.06 | 0.17
PRELP (proline and arginine rich end leucine rich repeat protein) | 2 | 0.65 | 2.79 | 2.73 | -0.04 | 0.13
PRELP (proline and arginine rich end leucine rich repeat protein) | 3 | 0.55 | 1.1 | 1.27 | 0.26 | 0.34
PRELP (proline and arginine rich end leucine rich repeat protein) | 4 | 0.58 | 1 | 1.08 | 1.03 | 0.83
FAM217B (family with sequence similarity 217 member B) | 1 | 0.68 | 2.04 | 2.14 | 0.2 | 0.29
FAM217B (family with sequence similarity 217 member B) | 2 | 0.76 | 2.39 | 2.25 | 0.27 | 0.27
FAM217B (family with sequence similarity 217 member B) | 3 | 0.56 | 1.14 | 1.44 | 0.86 | 0.62
FAM217B (family with sequence similarity 217 member B) | 4 | 0.68 | 1 | 1.06 | 1 | 0.93

Part of the list above, reduced to “cell growth without drug”.
ADGRG6 (adhesion G protein-coupled receptor G6) #1: 0.49 (active)
ADGRG6 (adhesion G protein-coupled receptor G6) #2: 0.52
ADGRG6 (adhesion G protein-coupled receptor G6) #3: 0.38
ADGRG6 (adhesion G protein-coupled receptor G6) #4: 1.04
CCZ1 (CCZ1 vacuolar protein trafficking and biogenesis associated) #1: 0.17
